Sequences of proteins named here, by UniProt entry; tags and fusion partners are left off. Residues count along the entry.
UniProt P35968, residues 20-1356: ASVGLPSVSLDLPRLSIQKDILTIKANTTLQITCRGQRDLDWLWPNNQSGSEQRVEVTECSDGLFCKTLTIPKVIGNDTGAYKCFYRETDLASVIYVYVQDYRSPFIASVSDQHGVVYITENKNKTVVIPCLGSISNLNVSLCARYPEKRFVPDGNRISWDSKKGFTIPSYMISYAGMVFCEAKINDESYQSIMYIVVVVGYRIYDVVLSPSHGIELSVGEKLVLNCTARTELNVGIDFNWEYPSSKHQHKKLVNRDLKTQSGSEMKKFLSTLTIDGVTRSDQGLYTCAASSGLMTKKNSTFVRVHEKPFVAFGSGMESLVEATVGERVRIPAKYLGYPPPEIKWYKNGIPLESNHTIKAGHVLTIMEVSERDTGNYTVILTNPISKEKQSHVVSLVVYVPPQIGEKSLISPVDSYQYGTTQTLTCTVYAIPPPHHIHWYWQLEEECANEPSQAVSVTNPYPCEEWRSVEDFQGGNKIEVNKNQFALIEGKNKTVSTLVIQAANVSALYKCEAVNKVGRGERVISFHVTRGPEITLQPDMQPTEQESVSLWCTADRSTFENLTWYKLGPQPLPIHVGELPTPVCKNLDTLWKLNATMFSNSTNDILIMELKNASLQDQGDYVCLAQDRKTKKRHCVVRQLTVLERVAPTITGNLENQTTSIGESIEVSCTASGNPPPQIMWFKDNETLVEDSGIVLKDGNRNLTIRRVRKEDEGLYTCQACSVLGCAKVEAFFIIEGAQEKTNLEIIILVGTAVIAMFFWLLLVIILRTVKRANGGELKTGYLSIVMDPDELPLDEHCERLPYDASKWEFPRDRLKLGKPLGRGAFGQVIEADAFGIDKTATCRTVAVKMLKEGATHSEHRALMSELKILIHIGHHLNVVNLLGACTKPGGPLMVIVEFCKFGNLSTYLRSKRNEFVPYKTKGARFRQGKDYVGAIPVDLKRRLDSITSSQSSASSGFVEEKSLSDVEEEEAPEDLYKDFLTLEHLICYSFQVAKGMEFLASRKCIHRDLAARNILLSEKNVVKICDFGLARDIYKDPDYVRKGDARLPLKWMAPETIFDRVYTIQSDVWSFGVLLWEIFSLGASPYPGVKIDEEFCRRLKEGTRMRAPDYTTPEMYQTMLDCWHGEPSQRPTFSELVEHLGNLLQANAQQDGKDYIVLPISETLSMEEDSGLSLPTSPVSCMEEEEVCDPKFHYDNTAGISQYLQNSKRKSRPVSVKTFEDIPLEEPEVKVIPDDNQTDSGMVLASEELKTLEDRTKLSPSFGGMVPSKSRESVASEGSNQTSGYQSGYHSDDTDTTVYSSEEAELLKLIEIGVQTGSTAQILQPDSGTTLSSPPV

According to publication doi:10.1101/2023.07.23.23292673:

T1: MDMX (Double minute 4 protein) (human (endogenous in placental chorionic villi)) (UniProt O15151)
T1 sequence: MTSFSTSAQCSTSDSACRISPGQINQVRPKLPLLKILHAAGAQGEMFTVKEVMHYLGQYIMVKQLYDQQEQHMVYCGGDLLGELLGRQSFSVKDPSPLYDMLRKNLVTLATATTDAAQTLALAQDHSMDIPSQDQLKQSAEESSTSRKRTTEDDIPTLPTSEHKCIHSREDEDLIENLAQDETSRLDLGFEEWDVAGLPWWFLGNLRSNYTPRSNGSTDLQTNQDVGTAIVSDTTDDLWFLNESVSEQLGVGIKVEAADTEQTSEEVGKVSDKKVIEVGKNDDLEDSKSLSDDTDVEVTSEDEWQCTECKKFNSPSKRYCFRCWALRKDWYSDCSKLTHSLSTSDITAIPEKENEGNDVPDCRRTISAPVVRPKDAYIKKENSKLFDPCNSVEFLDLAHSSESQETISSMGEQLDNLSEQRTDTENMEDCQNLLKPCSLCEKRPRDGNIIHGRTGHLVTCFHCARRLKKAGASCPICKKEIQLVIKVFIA

T2: PICALM (Phosphatidylinositol-binding clathrin assembly protein) (human (endogenous in placental chorionic villi)) (UniProt Q13492)
T2 sequence: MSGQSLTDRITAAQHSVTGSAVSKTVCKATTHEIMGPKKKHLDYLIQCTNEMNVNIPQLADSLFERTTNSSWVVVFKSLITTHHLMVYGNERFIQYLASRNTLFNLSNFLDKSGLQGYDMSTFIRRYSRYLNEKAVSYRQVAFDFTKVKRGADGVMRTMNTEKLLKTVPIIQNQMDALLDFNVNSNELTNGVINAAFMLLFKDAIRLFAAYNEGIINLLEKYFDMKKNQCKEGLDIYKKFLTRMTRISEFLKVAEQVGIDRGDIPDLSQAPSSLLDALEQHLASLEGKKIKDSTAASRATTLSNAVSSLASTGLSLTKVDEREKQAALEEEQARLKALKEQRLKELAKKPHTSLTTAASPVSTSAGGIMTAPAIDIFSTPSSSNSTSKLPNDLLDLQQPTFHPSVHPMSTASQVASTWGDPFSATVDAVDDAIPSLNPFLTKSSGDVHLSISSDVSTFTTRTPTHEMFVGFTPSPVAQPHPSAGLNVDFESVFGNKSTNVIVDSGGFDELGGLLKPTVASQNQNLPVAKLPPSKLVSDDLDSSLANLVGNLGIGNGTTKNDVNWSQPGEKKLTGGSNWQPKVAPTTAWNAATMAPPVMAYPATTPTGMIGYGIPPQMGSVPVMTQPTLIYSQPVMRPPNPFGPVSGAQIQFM

B1: PDC-E2 (DLAT), the E2 component of pyruvate dehydrogenase (protein, UniProt P10515 87-647)
chain: SLPPHQKVPLPSLSPTMQAGTIARWEKKEGDKINEGDLIAEVETDKATVGFESLEECYMAKILVAEGTRDVPIGAIICITVGKPEDIEAFKNYTLDSSAAPTPQAAPAPTPAATASPPTPSAQAPGSSYPPHMQVLLPALSPTMTMGTVQRWEKKVGEKLSEGDLLAEIETDKATIGFEVQEEGYLAKILVPEGTRDVPLGTPLCIIVEKEADISAFADYRPTEVTDLKPQVPPPTPPPVAAVPPTPQPLAPTPSAPCPATPAGPKGRVFVSPLAKKLAVEKGIDLTQVKGTGPDGRITKKDIDSFVPSKVAPAPAAVVPPTGPGMAPVPTGVFTDIPISNIRRVIAQRLMQSKQTIPHYYLSIDVNMGEVLLVRKELNKILEGRSKISVNDFIIKASALACLKVPEANSSWMDTVIRQNHVVDVSVAVSTPAGLITPIVFNAHIKGVETIANDVVSLATKAREGKLQPHEFQGGTFTISNLGMFGIKNFSAIINPPQACILAIGASEDKLVPADNEKGFDVASMMSVTLSCDHRVVDGAVGAQWLAEFRKYLEKPITMLL
B2: PICALM (Phosphatidylinositol-binding clathrin assembly protein) (protein, UniProt Q13492 1-652)
chain: MSGQSLTDRITAAQHSVTGSAVSKTVCKATTHEIMGPKKKHLDYLIQCTNEMNVNIPQLADSLFERTTNSSWVVVFKSLITTHHLMVYGNERFIQYLASRNTLFNLSNFLDKSGLQGYDMSTFIRRYSRYLNEKAVSYRQVAFDFTKVKRGADGVMRTMNTEKLLKTVPIIQNQMDALLDFNVNSNELTNGVINAAFMLLFKDAIRLFAAYNEGIINLLEKYFDMKKNQCKEGLDIYKKFLTRMTRISEFLKVAEQVGIDRGDIPDLSQAPSSLLDALEQHLASLEGKKIKDSTAASRATTLSNAVSSLASTGLSLTKVDEREKQAALEEEQARLKALKEQRLKELAKKPHTSLTTAASPVSTSAGGIMTAPAIDIFSTPSSSNSTSKLPNDLLDLQQPTFHPSVHPMSTASQVASTWGDPFSATVDAVDDAIPSLNPFLTKSSGDVHLSISSDVSTFTTRTPTHEMFVGFTPSPVAQPHPSAGLNVDFESVFGNKSTNVIVDSGGFDELGGLLKPTVASQNQNLPVAKLPPSKLVSDDLDSSLANLVGNLGIGNGTTKNDVNWSQPGEKKLTGGSNWQPKVAPTTAWNAATMAPPVMAYPATTPTGMIGYGIPPQMGSVPVMTQPTLIYSQPVMRPPNPFGPVSGAQIQFM
B3: arginase-1 (enzyme, UniProt P05089 1-322)
chain: MSAKSRTIGIIGAPFSKGQPRGGVEEGPTVLRKAGLLEKLKEQECDVKDYGDLPFADIPNDSPFQIVKNPRSVGKASEQLAGKVAEVKKNGRISLVLGGDHSLAIGSISGHARVHPDLGVIWVDAHTDINTPLTTTSGNLHGQPVSFLLKELKGKIPDVPGFSWVTPCISAKDIVYIGLRDVDPGEHYILKTLGIKYFSMTEVDRLGIGKVMEETLSYLLGRKKRPIHLSFDVDGLDPSFTPATGTPVVGGLTYREGLYITEEIYKTGLLSGLDIMEVNPSLGKTPEEVTRTVNTAVAITLACFGLAREGNHKPIDYLNPPK
B4: Protein-glutamine gamma-glutamyltransferase 2 (TGM2) (enzyme, UniProt P21980 1-687)
chain: MAEELVLERCDLELETNGRDHHTADLCREKLVVRRGQPFWLTLHFEGRNYEASVDSLTFSVVTGPAPSQEAGTKARFPLRDAVEEGDWTATVVDQQDCTLSLQLTTPANAPIGLYRLSLEASTGYQGSSFVLGHFILLFNAWCPADAVYLDSEEERQEYVLTQQGFIYQGSAKFIKNIPWNFGQFEDGILDICLILLDVNPKFLKNAGRDCSRRSSPVYVGRVVSGMVNCNDDQGVLLGRWDNNYGDGVSPMSWIGSVDILRRWKNHGCQRVKYGQCWVFAAVACTVLRCLGIPTRVVTNYNSAHDQNSNLLIEYFRNEFGEIQGDKSEMIWNFHCWVESWMTRPDLQPGYEGWQALDPTPQEKSEGTYCCGPVPVRAIKEGDLSTKYDAPFVFAEVNADVVDWIQQDDGSVHKSINRSLIVGLKISTKSVGRDEREDITHTYKYPEGSSEEREAFTRANHLNKLAEKEETGMAMRIRVGQSMNMGSDFDVFAHITNNTAEEYVCRLLLCARTVSYNGILGPECGTKYLLNLNLEPFSEKSVPLCILYEKYRDCLTESNLIKVRALLVEPVINSYLLAERDLYLENPEIKIRILGEPKQKRKLVAEVSLQNPLPVALEGCTFTVEGAGLTEEQKTVEIPDPVEAGEEVKVRMDLLPLHMGLHKLVVNFESDKLKAVKGFRNVIIGPA
B5: MDMX (Double minute 4 protein) (protein, UniProt O15151 1-490)
chain: MTSFSTSAQCSTSDSACRISPGQINQVRPKLPLLKILHAAGAQGEMFTVKEVMHYLGQYIMVKQLYDQQEQHMVYCGGDLLGELLGRQSFSVKDPSPLYDMLRKNLVTLATATTDAAQTLALAQDHSMDIPSQDQLKQSAEESSTSRKRTTEDDIPTLPTSEHKCIHSREDEDLIENLAQDETSRLDLGFEEWDVAGLPWWFLGNLRSNYTPRSNGSTDLQTNQDVGTAIVSDTTDDLWFLNESVSEQLGVGIKVEAADTEQTSEEVGKVSDKKVIEVGKNDDLEDSKSLSDDTDVEVTSEDEWQCTECKKFNSPSKRYCFRCWALRKDWYSDCSKLTHSLSTSDITAIPEKENEGNDVPDCRRTISAPVVRPKDAYIKKENSKLFDPCNSVEFLDLAHSSESQETISSMGEQLDNLSEQRTDTENMEDCQNLLKPCSLCEKRPRDGNIIHGRTGHLVTCFHCARRLKKAGASCPICKKEIQLVIKVFIA

Key:
Test in all cases: affinity purification with mass spectrometry
[1] = target: VEGFR2 (human (endogenous in placental chorionic villi)) (UniProt P35968)
[2] = target: T1, MDMX (Double minute 4 protein) (human (endogenous in placental chorionic villi))
[3] = target: T2, PICALM (Phosphatidylinositol-binding clathrin assembly protein) (human (endogenous in placental chorionic villi))

| Molecule | binding [1] | binding [2] | binding [3] |
| --- | --- | --- | --- |
| Immunoglobulin heavy constant alpha 1 (IGHA1) (from UniProt P01876-1) | binds |  |  |
| B1 | binds |  |  |
| B2 | binds | binds |  |
| B3 |  | binds |  |
| B4 |  | binds | binds |
| B5 | binds |  |  |

No constants are given. Whether binding was seen depends on the method and setting. Binding seen in cells or lysates may run through a third protein. These calls come from enrichment with a bait or labelling near it, and not all partners need be listed.
